PubChem BioAssay AID504791 | Drosophila RNAi Screening Center, 2011

- Assay: 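Genes of the fly required for silencing by miRNA, siRNA or endo-siRNA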 (primary screen)
- Cell system: Drosophila S2-derived reporter cells
- Reagent: long dsRNA against Drosophila genes, about 150-250 ng dsRNA per well (siRNA assay); about 80-120 ng (miRNA assay)
- Duration: about 5 days (siRNA assay); about 4 days (miRNA assay)
- Treatment: copper sulfate induction of reporters: 25 µM (siRNA assay); 200 mM stated (miRNA assay), 1-2 days before reading
- Measurement: 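Per-well ratio of Renilla over firefly light, expressed relative to that plate's average ratio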
- Reading the numbers: siRNA reporter hit score: higher = 3 marks a strong hit with raised ratio; -3 a strong hit with lowered ratio
- Active means: 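a well was a first-pass pick when its plate-scaled ratio rose above 1.5 (siRNA assay) or 1.6 (miRNA assay), or dropped below 0.6; a gene counted only if two separate dsRNAs agreed on retest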
The deposit covers about 23,000 reagents; shown is a random part of those with a known target gene and a result. In the full data, 199 (0.86%) got an active call. 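Plate-scaled ratios behind the calls are not deposited; printed light signals are raw; many rows marked increased or decreased are still called inactive.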 Reagents against one gene are numbered here. A plus sign joins genes that one reagent is predicted to hit. Not all columns of the deposit are shown.

gene knocked down	reagent	siRNA reporter hit score	stable siRNA reporter change	miRNA reporter change	stable assay Renilla, run 1 (luminescence)	call
MtnC	1				4008	inactive
egg	1				20374	inactive
egg	2				6392	inactive
gwl	1				9286	inactive
CG42376 + cin	1				7824	inactive
Inx5	1				6199	inactive
Cyp313b1	1				6746	inactive
gNacalpha	1				8050	inactive
Syt12	1				4471	inactive
metro	1				9038	inactive
metro	2				5223	inactive
Amyrel	1				11423	inactive
GstD9	1				6742	inactive
CG34150	1				5718	inactive
CG3880	1				6334	inactive
CG3880	2				8722	inactive
Trap1	1				13528	inactive
CG1208	1				8531	inactive
Lcp65Ag3 + Lcp65Ag2 + Lcp65Ag1	1				5719	inactive
Lcp65Ag3 + Lcp65Ag2 + Lcp65Ag1	2				6408	inactive
ppk25	1				6843	inactive
Fum4	1				4667	inactive
RnrL	1				56797	inactive
Coq8	1				5339	inactive
Hecw	1				4652	inactive
Hecw	2				5451	inactive
Reps	1				7208	inactive
Wdr81	1				15902	inactive
Neurl4	1				7799	inactive
retm	1				28828	inactive
CG4983	1				6575	inactive
Stacl + CG8179 (retired record)	1		reporter ratio raised past the hit cutoff		3271	inactive
Stacl + CG8179 (retired record)	2				4140	inactive
CG8630	1			reporter ratio raised past the hit cutoff	7841	inactive
CG18258	1				5811	inactive
mfr	1				6246	inactive
Lcp65Ab2 + Lcp65Ab1	1				6508	inactive
Lcp65Ab2 + Lcp65Ab1	2				6699	inactive
GABA-B-R1	1				9441	inactive
CG32986	1				7211	inactive
CG3408	1				5668	inactive
CG31211	1				4483	inactive
CG31211	2				8418	inactive
CG31211	3			reporter ratio raised past the hit cutoff	10592	inactive
CG31431	1				8144	inactive
Tsp42En	1				7086	inactive
GstO2	1				8226	inactive
AsnRS	1				8298	inactive
cass	1				1.12e5	inactive
Teh4	1				5351	inactive
CG14720	1				6859	inactive
Taf3	1				9157	inactive
spag	1				6198	inactive
ClC-b	1				5927	inactive
wus	1				6867	inactive
CG31207	1				9315	inactive
Rpt3	1	-3		reporter ratio raised past the hit cutoff	4783	inactive
Daao2	1				11359	inactive
CG17261	1				8297	inactive
CG14983	1				5662	inactive
Ir60e	1				5879	inactive
Pka-R1	1				9311	inactive
Pka-R1	2				7674	inactive
Rpn6	1				5016	inactive
shop	1				7062	inactive
CG11634	1				7519	inactive
ND-MNLL	1				5836	inactive
CG15207 (retired record)	1		reporter ratio raised past the hit cutoff		3496	inactive
CG15207 (retired record)	2				3988	inactive
CG10053	1				7814	inactive
CG14635	1				6255	inactive
Tsp3A	1				6114	inactive
Bgb	1				8784	inactive
CG6901	1				6950	inactive
E2f1	1		reporter ratio lowered past the hit cutoff		5588	inactive
Ugt303A1	1				5535	inactive
mei-P22	1				6586	inactive
Cpr72Eb	1				7592	inactive
CtsK1	1				7446	inactive
Sfp93F	1				4895	inactive
PGRP-LC	1				4923	inactive
PGRP-LC	2				5838	inactive
PGRP-LC	3				5895	inactive
CG12164	1				25725	inactive
CG12164	2				9282	inactive
CG13559	1				5955	inactive
CG34300	1				5028	inactive
CG10713	1				5272	inactive
ATP8A	1				5659	inactive
ATP8A	2				7859	inactive
ATP8A	3				6095	inactive
CG14787	1				7575	inactive
CG17298	1				7295	inactive
twy	1				6891	inactive
CG7179	1				7812	inactive
CG7179	2			reporter ratio raised past the hit cutoff		inactive
Kaz-m1	1				6856	inactive
CG14926	1		reporter ratio lowered past the hit cutoff		7643	inactive
Rnb	1				7786	inactive
sqz	1				8050	inactive
CG15035	1				6131	inactive
scramb2	1				6410	inactive
CG42324	1				6099	inactive
CG42324	2				5435	inactive
Obp56g	1				5580	inactive
HmgZ	1				5646	inactive
HmgZ	2				4748	inactive

An excerpt from above, reduced to “stable assay Renilla, run 1 (luminescence)”:
GstO2 = 8226
AsnRS = 8298
cass = 1.12e5
Teh4 = 5351
CG14720 = 6859
Taf3 = 9157
spag = 6198
ClC-b = 5927
wus = 6867
CG31207 = 9315
Rpt3 = 4783
